Measured values published in patent US20260269287A1, “ALL-NONAQUEOUS MEMBRANE-FREE FLOW BATTERIES” (University of Cincinnati, priority 2023, published 2026).
Several values for one entry are separate records, joined by “and”; a condition that tells them apart may be missing. Equal values may be shown once. At least one structure is not confirmed: it was looked up by name or label, or the drawing left a doubt. Some entries share one result that the patent states for a list of compounds.

What was measured:
[1] = Linear sweep voltammetry with rotating disk electrode (Levich / Butler-Volmer) in 0.1 M FEC/LiClO4; type: physicochemical; conditions: 0.5 mM in 0.1 M FEC/LiClO4, RDE
[2] = RDE linear sweep voltammetry of C18-PTZ in 0.1 M FEC/LiTFSI; type: physicochemical; conditions: 1 mM in 0.1 M FEC/LiTFSI
Method: To investigate the electrochemical kinetics of C18-PTZ redox molecules, linear sweep voltammetry (LSV) was conducted using the rotating disk electrode (RDE) technique. The LSV curves of C18-PTZ were measured in electrolyte solutions containing 1.0 mM C18-PTZ in 0.1 M FEC/LiTFSI solution, and the results are presented in FIG. 68(a).
Calculation of diffusion coefficient and electron transfer rate. Linear sweep voltammetry (LSV) studies were carried out using a Pine modulated speed rotator with Biologic potentiostats. Rotating disk electrode (RDE, diameter: 5 mm), Pt wire electrode and Ag/Ag^+ electrode were used as the working, counter and reference electrodes, respectively. Before testing, the samples were purged with argon for 10 min. LSV dates were collected at different rotation rates ranging from 100 to 1600 rpm. The diffusion coefficient (Do) of electroactive materials were calculated from the Levich plot using Equation 1.
The kinetic rate constant is calculated by Equation 2.
The LSV investigations were conducted using a Pine modulated speed rotator paired with Biologic potentiostats. […] The diffusion coefficient (D) of electroactive materials was calculated from the Lévich plot using Equation 1. The kinetic rate constant is calculated by Equation 2.

Compound | diffusion coefficient (D) [1] | kinetic rate constant (k0) [2] [cm/s] | diffusion coefficient (D) ([2]; Levich plot)
CC1(C)CC(Nc2nc(NC3CC(C)(C)N(OC4CCCCC4)C(C)(C)C3)nc(NC3CC(C)(C)N(OC4CCCCC4)C(C)(C)C3)n2)CC(C)(C)N1OC1CCCCC1 [Tri-TEMPO, 2,4,6-tri-(1-cyclohex-yloxy-4-imino-2,2,6,6-tetramethylpiperidine)-1,3,5-triazine] | 10^−6-10^−5 cm^2 s^−1 and 10-6-10-5 |  | 
CCCCCCCCCCCCCCCCCCN1c2ccccc2Sc2ccccc21 [C18-PTZ] |  | 0.00351 | 6.23×10-6 cm^2/s
CCCN1c2ccccc2Sc2ccccc21 [C3-PTZ, N-propyl phenothiazine] | 10^−6-10^−5 cm^2 s^−1 |  | 
CCCCN(CC)c1c(N(CC)CCCC)[c+]1N(CC)CCCC.F[P-](F)(F)(F)(F)F [CP, tris(dialkylamino)cyclo-propenium] | 10^−6-10^−5 cm^2 s^−1 and 10-6-10-5 |  | 
